For three substances, half-life results are on record in patent US8841274B2, “Protein arginine N-methyltransferase-5 method of cancer treatment” (priority 2009, dated 2014).

The data set deals with U2OS cells. The data set can be described thus: Cyclohexamide half-life assay. The class given is cell-based. The conditions noted are these: 100 μg/ml cyclohexamide, 0-6 h, n=2.

In the case of “KK: methylation-defective E2F-1 protein containing the mutations R111K and R113K”, the half-life was 75 min.
The substance “KKK: methylation-defective E2F-1 protein containing the mutations R109K, R111K and R113K” had a half-life of 75 min.
For “wild-type E2F-1: E2F-1 protein, SEQ ID NO:3, used as GST fusion or HA-tagged expression vector” the value was 25 min.
